Laboratory results: PubChem BioAssay AID1508600 (Functional Genomics Laboratory (NCATS/FGL), 2020)
About 3,700 (7%) of roughly 53,000 sequences were called active.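 The calls were made as follows: active = gene knockdowns whose robust z-score for IL-1 alpha signal is at least 2 or at most -2, so actives lie on both sides; inactive = the rest.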 The list shows a part of the results.

Assay: Components of the Cytosolic LPS Sensing Pathway: Gene Identification via Genome-wide siRNA Screen;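 also: robust z of the log signal after scaling to non-targeting control siRNA wells of the plate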
Conditions: RAW264.7 macrophages, IL-1a HTRF, actives lie on both sides, screened at 100 nM (by protocol), cells primed 5 h with Pam3CSK4 first
Procedure, shortened: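 RAW264.7; siRNA 100 nM final, RNAiMAX, 48h 37 degrees C; Pam3CSK4 5 h; LipidA + TransIT-TKO 24 h; IL-1a HTRF; CellTiter-Glo viability; robust z vs negative-control median.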

Row | Sequence | z-score
1 | GCUCUUGGAGCAUUUGUAGTT against Rab32 | inactive: -0.492
2 | GGAGAUCGUGCAAUUCAUUTT against Rasl2-9 | inactive: 0.399
3 | GGCUGCUUAACCUUGAUAATT against Lrrd1 | inactive: 0.529
4 | GGGCUAUCUCAGGUGGAAUTT against Xpnpep3 | inactive: 1.14
5 | GGAAAUUGAAGAGAAAGUGTT against Tor1aip1 | inactive: -0.534
6 | GGAGCACAGGCUCAGAAAATT against Ltb | inactive: 0.486
7 | GGCUCAGAUCUGGGACACUTT against Rab11b | inactive: 0.215
8 | ACAAAUCACACGUGUUAGUTT against Adam20 | inactive: -1.03
9 | CCCACUUUGAGGAAAGCUATT against Itprip | active: -2.46
10 | GGAGUUUCAGGUUUUACUUTT against Pp2d1 | inactive: 1.35
11 | GCAUAUGGAGAGAAUCCCATT against Atg4b | inactive: -1.27
12 | GGUCCAAGUCCGUCUACUATT against Acbd3 | inactive: 0.987
13 | GGAAUUAGCUGAACAUUGUTT against Txndc8 | inactive: 1.15
14 | GGAACACUCCAGUUUGAAUTT against Thsd1 | inactive: 1.09
15 | GGCAUGACUUCCAUUUCCCTT against Zbtb22 | inactive: 0.0182
16 | GGUAUAUGUAACGUGUACUTT against Ercc4 | inactive: -0.752
17 | CCAAUGGGCGUAAUCACUUTT against Obox3 | inactive: -1.84
18 | GGUGGAAGUGUAAAUAUCATT against Ptprd | inactive: 0.759
19 | CGAGAUAGAGUCUGGAAUUTT against 1700092C17Rik | active: 3.91
20 | GGUGGAAAAGUGAAAAAGGTT against Ddx18 | inactive: 0.158
21 | GGAAGUUUCUGGAAACACATT against Mbd3 | inactive: -0.487
22 | UCUGGAGUCUUAUCAAGGATT against Smim5 | inactive: -0.466
23 | GGCAUACCCAAAAAUAGAATT against Eif1a | inactive: 0.139
24 | GGACAGCAGUCAGGAGACATT against Rusf1 | inactive: -0.294
25 | GGAAGUUAAGCAUAGUUUCTT against Flrt3 | inactive: 1.15
26 | GGAUAUGGAGAAAAGGAAATT against Slc22a22 | inactive: 1.2
27 | GGAUUUCAUCAGUGUUCUUTT against Rrp15 | inactive: 0.421

Row | Sequence | z-score
28 | GGGUCUCCAAACCAUCAGUTT against Kir3dl1 | inactive: -1
29 | GGCUACAGCAGCAAUUACATT against Zc3h13 | inactive: -1.42
30 | GGAGCAAAUCCAGAGCAACTT against Actr8 | inactive: 1
31 | GGGCUCACCUCUCUCUUUGTT against Psd | inactive: -1.36
32 | GGUAUUGCACCAGGCAUGUTT against Ssh3 | inactive: 0.0779
33 | GCCCAAGGAGGCAUUGAUATT against Fbxo8 | inactive: -0.653
34 | GGCUGGUUUACAACAGAACTT against Pla2g15 | inactive: -0.647
35 | CGCAAGCUUAUUUCAAUGGTT against Cd86 | inactive: 1.01
36 | CCCUACUCGAAUUUAUAGCTT against Tmem54 | inactive: -0.553
37 | GGAAAGUGUUUUGUCAAUGTT against Olfr1305 | inactive: 0.698
38 | GCAUGCAGAGUUACUAUUGTT against Tas2r143 | inactive: -0.316
39 | GAACACAAAUCUAGUAGACTT against Olfr1109 | inactive: 0.278
40 | GGUCCUUCCAUAGUGACGCTT against Igfbp7 | inactive: -1.28
41 | GGACUACAACUACCUUAACTT against Cdh3 | inactive: 0.125
42 | GGGUGUGAGUGAUUAUGAATT against Prpf31 | inactive: -1.12
43 | CGGAGUUGACCUGACAUCCTT against Atp6v1c2 | inactive: -0.77
44 | CGGUGAAGACUAUCAUGGUTT against Tln1 | inactive: -0.791
45 | GCUCAUGUCUUAUUUGGAUTT against Klhl15 | inactive: -0.393
46 | GGAAAAACUACCAAGAGGATT against Pigp | active: 2.32
47 | GCCUAGAAGAAAAACUAAATT against Eef2kmt | inactive: -0.668
48 | CCCGCUAUUACGUUUUUCUTT against Mtarc2 | inactive: -0.498
49 | GGCAACUUUGAGUUUGGUATT against Podn | inactive: 0.748
50 | CCAUCCCAUAUGUUCCGGUTT against Ptms | inactive: 0.94
51 | GCAGACUUACAUCCGGAAGTT against Mybphl | inactive: -0.119
52 | GGACCUCUUGCUAAUCCAATT against Ptprk | inactive: 1.03
53 | CCUCAGUCCUCUGUUAAAATT against Olfr355 | inactive: -0.262

As entered above.
Entry for GGCAACUUUGAGUUUGGUATT against Podn under z-score: inactive: 0.748
Entry for GGGUGUGAGUGAUUAUGAATT against Prpf31 under z-score: inactive: -1.12
Entry for GGACCUCUUGCUAAUCCAATT against Ptprk under z-score: inactive: 1.03
Entry for GGAAAGUGUUUUGUCAAUGTT against Olfr1305 under z-score: inactive: 0.698
